Reference: PubChem BioAssay AID504786 (Drosophila RNAi Screening Center, 2011)
The screen tested about 21,000 reagents; shown is an unselected part of those that have a named target and a result. 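Primary screen; positive scores mean lost reporter signal, so the sign may be inverted from the usual convention.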 A plus sign joins genes that one reagent is predicted to hit.

Test: 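Fly genes required for HIF-dependent transcription when hypoxia is mimicked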 (primary screen)
Cells: Drosophila S2 cells with a stable HIF luciferase reporter
Reagent: long dsRNA against Drosophila genes, about 0.2 µg dsRNA per well of a 384-well plate
Time to read-out: three days of knock-down, then 20 h of DFO before reading
Challenge: desferrioxamine (DFO) at 100 µM, an iron chelator that mimics hypoxia, for 20 h
Read-out: 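HIF reporter luminescence in cells given 100 µM DFO for 20 h, using the mouse ldh-a hypoxia-response element, scored as per-plate z-scores; higher means greater loss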
Reading the numbers: z-score: higher = stronger loss of HIF reporter signal

Target gene | dsRNA | z-score, replicate 1 | z-score, replicate 2 | z-score, replicate 3 | z-score, replicate 4
osa | DRSC17022 | 0.9 | 1 | – | –
CG30349 | DRSC06421 | 0.1 | 3.5 | – | –
CG30349 | DRSC06839 | 0.2 | 2.9 | – | –
drpr | DRSC08143 | -0.1 | 0.2 | – | –
drpr | DRSC08525 | -0.3 | -0.3 | – | –
CtIP | DRSC11785 | -0.3 | -0.2 | – | –
Lmpt | DRSC09450 | -0.5 | -0.7 | -0.2 | -0.2
Lmpt | DRSC09864 | -0.2 | -0.9 | – | –
Lmpt | DRSC09865 | -0.3 | -0.4 | – | –
Lmpt | DRSC09866 | -0.3 | -0.3 | – | –
Lmpt | DRSC11107 | -0.3 | 0.8 | – | –
CG5493 + CG5327 | DRSC06938 | -0.4 | -0.5 | – | –
hwt | DRSC19386 | -0.9 | -0.3 | – | –
CG15336 | DRSC18019 | -0.3 | -0.3 | – | –
Or1a | DRSC18689 | -0.4 | -0.4 | – | –
CG2991 | DRSC00559 | -0.2 | -0.3 | – | –
Polr1E | DRSC14506 | 0.1 | 0 | – | –
Polr1E | DRSC15358 | -0.2 | -0.2 | – | –
CG17191 | DRSC15185 | -0.1 | -0.4 | – | –
CG33770 | DRSC11717 | -0.1 | -0.3 | – | –
RpS6 | DRSC18712 | 7.4 | 4.1 | – | –
CG15024 | DRSC08478 | -0.4 | -0.5 | – | –
Pde8 | DRSC04503 | -0.2 | 0.1 | – | –
CG9981 | DRSC20225 | 0 | -0.7 | – | –
AstA-R1 | DRSC17278 | 0.4 | -0.1 | – | –
AstA-R1 | DRSC17727 | 0.3 | 0.2 | – | –
CG34315 + Orc3 | DRSC07642 | -0.2 | -0.3 | – | –
rau | DRSC03125 | -0.2 | -0.5 | – | –
CG15435 | DRSC00450 | -0.2 | 0.4 | – | –
msps | DRSC17004 | -0.2 | -0.3 | – | –
CG7264 | DRSC10793 | -0.1 | 0 | – | –
CG13287 | DRSC09961 | -0.5 | -0.1 | – | –
CG7058 | DRSC20021 | -0.6 | -0.4 | – | –
Drl-2 | DRSC05393 | -0.3 | -0.3 | – | –
Drl-2 | DRSC06155 | -0.4 | 0 | – | –
Drl-2 | DRSC06858 | -0.4 | -0.1 | – | –
AttA | DRSC05926 | -0.2 | -0.1 | – | –
CG9727 | DRSC12585 | -0.5 | -0.4 | – | –
CG13376 | DRSC17901 | -0.4 | -0.5 | – | –
CG1463 | DRSC19603 | -0.1 | 0 | – | –
CG14270 | DRSC17913 | -0.2 | 0.7 | – | –
CG7376 | DRSC10829 | -0.2 | -0.1 | – | –
TpnC41C | DRSC04916 | -0.2 | 0 | – | –
sl | DRSC20377 | -0.3 | -0.1 | – | –
CG9577 | DRSC20693 | 0 | -0.3 | – | –
Oatp58Dc | DRSC04363 | -0.4 | -0.2 | – | –
Mcm5 | DRSC16735 | -0.1 | 0 | – | –
CG4935 | DRSC01924 | -0.4 | -0.3 | – | –
Acf | DRSC14101 | 0 | 0 | – | –
ND-MWFE | DRSC06364 | -0.1 | -0.1 | – | –
Cpr49Ag | DRSC07203 | -0.4 | -0.5 | – | –
whd | DRSC07351 | -0.4 | -0.4 | – | –
ca | DRSC15305 | -0.4 | -0.2 | – | –
ca | DRSC15306 | -0.3 | -0.5 | – | –
ca | DRSC16314 | -0.1 | -0.5 | – | –
Acbp5 | DRSC10548 | -0.4 | -0.3 | – | –
CG4250 | DRSC04455 | -0.2 | -0.2 | – | –
Uck | DRSC13661 | 0 | 0 | – | –
Uck | DRSC16028 | -0.3 | 0.3 | – | –
RpL9 | DRSC03418 | 4.5 | 5.7 | – | –
pio | DRSC04386 | -0.1 | 0 | – | –
vrs | DRSC15832 | -0.3 | -0.1 | – | –
CG34299 | DRSC13974 | 0.1 | -0.2 | – | –
Ntan1 | DRSC07546 | -0.2 | 0 | – | –
Cnep1r1 | DRSC20620 | -0.1 | -0.7 | – | –
CG15170 | DRSC02471 | -0.3 | -0.5 | – | –
CG5162 | DRSC19935 | -0.3 | -0.5 | – | –
CG11345 | DRSC08176 | 0 | -0.5 | – | –
St1 | DRSC04504 | -0.3 | -0.1 | – | –
CG32845 | DRSC07867 | -0.3 | -0.5 | – | –

Copied from the list.
Under “z-score, replicate 2”, CG15435 [DRSC00450] shows 0.4
Result of vrs [DRSC15832] in “z-score, replicate 2”: -0.1
CG34299 [DRSC13974], z-score, replicate 2 = -0.2
CG7376 [DRSC10829], z-score, replicate 1 = -0.2
Value for Lmpt [DRSC09866] under “z-score, replicate 1”: -0.3
Under “z-score, replicate 1”, Polr1E [DRSC15358] reads -0.2

Next reagents:
Target gene | dsRNA | z-score, replicate 1 | z-score, replicate 2 | z-score, replicate 3 | z-score, replicate 4
shi | DRSC20373 | -0.6 | -0.9 | – | –
ZIPIC | DRSC16349 | -0.3 | -0.7 | – | –
CG2930 | DRSC17730 | -0.2 | -0.3 | – | –
Tbc1d22 | DRSC15867 | -0.2 | 0 | – | –
CG10863 | DRSC08145 | -0.3 | -0.6 | – | –
Fer2LCH | DRSC16672 | -0.5 | -0.5 | – | –
Cpr30B | DRSC02728 | -0.4 | -0.2 | – | –
shams | DRSC16590 | -0.3 | -0.5 | – | –
Oatp26F | DRSC02149 | -0.3 | -0.5 | – | –
Oatp26F | DRSC02272 | -0.1 | 0.1 | – | –
Oatp26F | DRSC02695 | -0.2 | -0.2 | – | –
E2f2 | DRSC03320 | -0.3 | -0.9 | – | –
CG10175 | DRSC13628 | -0.3 | -0.2 | – | –
CG10175 | DRSC14200 | -0.3 | -0.6 | – | –
Arp1 | DRSC14118 | -0.3 | -0.4 | – | –
CG7800 | DRSC16315 | -0.4 | 0.6 | – | –
Csl4 | DRSC02944 | -0.3 | -0.4 | – | –
ppk13 | DRSC02382 | -0.3 | -0.4 | – | –
CG32333 | DRSC08627 | -0.3 | -0.5 | – | –
CG32333 | DRSC08629 | -0.2 | -0.2 | – | –
Rnb | DRSC16325 | -0.3 | 0 | – | –
CG15580 | DRSC12266 | -0.3 | -0.2 | – | –
Pex10 | DRSC08599 | -0.3 | -0.2 | -0.3 | -0.2
CG42663 | DRSC06158 | -0.6 | -0.7 | – | –
CG42663 | DRSC06404 | -0.3 | 0.1 | -0.3 | -0.3
CG5043 | DRSC02805 | -0.1 | -0.3 | – | –
CG34198 | DRSC05803 | -0.8 | 0 | – | –
CG31327 | DRSC13019 | -0.2 | 0 | – | –
asun | DRSC16733 | -0.2 | -0.1 | – | –
l(2)k09848 | DRSC04894 | -0.1 | 0.4 | – | –
RpLP0 | DRSC11878 | -0.4 | 0.1 | – | –
APC4 | DRSC18360 | -0.3 | 0 | – | –
CG4645 | DRSC19907 | -0.3 | -0.6 | – | –
TkR99D | DRSC16881 | -0.3 | 0.2 | – | –
CG15056 | DRSC19630 | -0.3 | -0.2 | – | –
Crtp | DRSC04604 | -0.3 | -0.3 | – | –
